Target: precursor Nedd8 (UniProt Q15843 1-81)
Experiment: FRET

Sequences of proteins named here, by UniProt entry; tags and fusion partners are left off.
UniProt Q15843, whole entry: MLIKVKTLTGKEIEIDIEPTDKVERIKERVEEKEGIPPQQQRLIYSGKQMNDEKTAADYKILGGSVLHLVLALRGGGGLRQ

- Kd: 144 µM
B1: eDEN1-FRET-D10N (designed binder)
chain: MPSSHHHHHHSSGLVPRGSHMDPVVLSYMNSLLRQSDVSLLDPPSWLNDHIIGFAFEYFANSQFHDCSDHVSFISPEVTQFIKCTSNPGGSGGMVSKGEELFTGVVPILVELDGDVNGHKFSVSGEGEGDATYGKLTLKFICTTGKLPVPWPTLVTTLSWGVQCFARYPDHMKQHDFFKSAMPEGYVQERTIFFKDDGNYKTRAEVKFEGDTLVNRIELKGIDFKEDGNILGHKLEYNYFSDNVYITADKQKNGIKANFKIRHNIEDGGSTGFEIPDDVPLPAGWEMAKTSSGQRYFKNHIDQTTTWQDPRKAGGGGVQLADHYQQNTPIGDGPVLLPDNHYLSTQSKLSKDPNEKRDHMVLLEFVTAAGITLGMGGSGGAEIAMFLEPLDLPNKRVVFLAINDNSNQAAGGTHWSLLVYLQDKNSFFHYDSHSRSNSVHAKQVAEKLEAFLGRKGDKLAFVEEKAPAQQNDYDAGMYVICNTEALCQNFFRQQTESLLQLLTPAYITKKRGEWKDLITTLAKTGMVSKGEELFTGVVPILVELDGDVNGHKFSVSGEGEGDATYGKLTLKFICTTGKLPVPWPTLVTTFGYGLMCFARYPDHMKQHDFFKSAMPEGYVQERTIFFKDDGNYKTRAEVKFEGDTLVNRIELKGIDFKEDGNILGHKLEYNYNSHNVYIMADKQKNGIKVNFKIRHNIEDGSPLPPYTTGGSGSQSGSGTGSESGSTGGSVQLADHYQQNTPIGDGPVLLPDNHYLSYQSKLSKDPNEKRDHMVLLEFVTAAGITLGMDELYK
